# Data taken from PubChem BioAssay AID493014 (National Center for Advancing Translational Sciences (NCATS), 2011).
# Among all 340,000 compounds or so, about 170 (0.05%) were called active. Inconclusive means that the source gave no clear call. Such entries were picked first, then a sample of the others. The call rests on the fitted dose curve; in most records, active means well fitted inhibition curve with a large enough effect in the signal ratio, with a control signal flat (not every such curve was filed as active); inconclusive means small, poorly fitted or top-dose-only effect, or effect the other way, or a change in a side signal; inactive means flat fitted curve, though single readings scatter; the % refers to the signal ratio. A potency beside an inconclusive call is a rough fit, not a confirmed value.
# Assay: qHTS Assay to Find Inhibitors of Chronic Active B-Cell Receptor Signaling;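 on activity change, negative = inhibition: plate controls were basal doxycycline-induced cells for no effect and cells given 10 µM MG132 for full effect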
# Settings: ABC-DLBCL IkBa-CBG/CBR reporter, luminescence ratio (green luciferase fused to IkBa over red control in TMD8 lymphoma cells), 4 h; activity change, negative = inhibition: at 46.1 µM (top of the series) unless noted
# Outline: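 Compounds up to 46 uM were incubated four hours with TMD8 cells whose green CBG68 luciferase is fused to IkappaBalpha; red CBR luminescence normalised the signal, and concentration-effect curves were fitted to fusion, red and ratio data.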
# Potency means the concentration at half of the fitted maximal effect.
Structure (SMILES),"activity change, negative = inhibition",Potency
O=C(NCC(c1ccc(F)cc1)N1CCOCC1)c1cc(F)c(F)c(F)c1F (centres undefined),inconclusive: -6.27%,–
CCCc1nnc(SCC(=O)N2CCCCC2C)n1CCOC (centres undefined),inconclusive: -1.37%,–
Cc1ccc(NS(=O)(=O)c2ccc3c(c2)oc(=O)n3C)cc1C,inconclusive: 2.56%,–
Cc1ccc(-c2cc(C(=O)NCc3ccc4c(c3)OCO4)no2)cc1,inconclusive: 6.26%,–
Cc1cccc2sc(NC(=O)C3=NN(c4ccccc4)C(=O)CC3)nc12,–,"inconclusive: 7.31 µM [falling, partial curve]"
Clc1cc2c(c(Cn3cnc4ccccc43)c1)OCOC2,–,"inconclusive: 20.6 µM [falling, single point]"
CCOc1ccc(S(=O)(=O)Nc2ccc(C(=O)NCC(c3ccco3)N3CCCCC3)cc2)cc1 (centres undefined),inconclusive: -7.73%,–
Cc1ccc(C(=O)COC(=O)c2cccs2)cc1,–,"inconclusive: 29.1 µM [falling, single point]"
CCn1ccc(C(=O)Nc2c(C)nn(Cc3c(F)c(F)c(F)c(F)c3F)c2C)n1,inactive: -5.35%,–
Cc1c(C)c2ccc(OC(C)C(=O)N3CC[C@@]4(O)CCCC[C@H]4C3)c(C)c2oc1=O (some centres undefined),–,"inconclusive: 10 µM [falling, single point]"
COc1ccccc1OCCOCCOc1ccc(C)cc1Br,inconclusive: 11.1%,–
O=c1cc(-c2ccc(O)cc2)oc2ccc3ccccc3c12,–,"inconclusive: 20.6 µM [falling, single point]"
Cn1c2ccccc2c(=O)c2cc(C#Cc3ccc(N)cc3)ccc21,inconclusive: 13.2%,–
N#CC1(c2ccccc2)CCCN1C(=O)c1ccccc1Cl (centres undefined),inconclusive: 2.45%,–
COc1ccc([C@@H]2[C@@H]3C(=O)N(C(C)(C)C)C(=O)[C@@H]3[C@]3(Cc4ccccc4)C(=O)N(c4cccc(Cl)c4)C(=O)N23)cc1,inconclusive: 11%,–
Cc1cc(C(=O)CCl)c(C)n1-c1cccc([N+](=O)[O-])c1,–,"inconclusive: 35.5 µM [falling, single point]"
Cn1c(SCC(=O)c2ccccc2)nnc1-c1cccs1,inactive: -9.85%,–
CCN(CC)c1ccc(C2Nc3cccc4cccc(c34)N2)cc1,inconclusive: 8.24%,–
O=[N+]([O-])c1ccccc1OCCNCc1ccccc1,inactive: 0.759%,–
O=C(NNc1cccc(Cl)n1)c1c(F)cccc1F,inconclusive: 15.7%,–
Cc1cccc(NC(=O)Nc2ccc(C)c(C)c2)n1,inconclusive: 6.13%,–
Cc1cc2c(c(=O)o1)C(Cc1ccccc1)C(C#N)=C(N)O2 (centres undefined),–,"inconclusive: 0.651 µM [falling, full curve]"
CC1=NNC(=O)C1CCC(=O)N/N=C\c1ccc(Cl)c(Cl)c1 (centres undefined),–,"inconclusive: 14.1 µM [falling, partial curve]"
CCOc1cc(N2CCOCC2)c(OCC)cc1NC(=O)c1ccccc1C,inconclusive: 0.667%,–
CCc1ccc(OC(=O)c2cncc(Br)c2)cc1,inconclusive: -18.6%,–

Structure (SMILES),"activity change, negative = inhibition",Potency
CC(=O)c1cc(F)c(N2CCN(C(=O)COc3ccc(F)cc3)CC2)cc1C,inactive: 8.18%,–
COc1nc(NCCc2ccc(OC)c(OC)c2)nc(NC(C)(C)CO)n1,–,"inconclusive: 18.4 µM [falling, partial curve]"
Cc1cc(NS(=O)(=O)c2ccc(NC(=S)Nc3ccc(Cl)cc3C)cc2)no1,–,"inconclusive: 35.5 µM [falling, single point]"
CN(C)c1ccc(S(=O)(=O)N(C)C)cc1[N+](=O)[O-],inconclusive: 0.789%,–
N#C/C(=C\c1ccc(F)cc1)c1n[nH]c(Cn2cncn2)n1,inconclusive: -14.8%,–
Nn1c(SCc2ccccc2F)nnc1-c1ccccn1,–,"inconclusive: 35.5 µM [falling, single point]"
O=C(O)c1cccc(NC(=S)NC(NC(=O)c2ccccc2[N+](=O)[O-])C(Cl)(Cl)Cl)c1 (centres undefined),–,"inconclusive: 0.355 µM [falling, partial curve, poor fit]"
CC#CCN1c2ccccc2[C@]23C[C@@H](C(=O)OC)N(C(=O)c4ccco4)C2=NC(C(=O)OC)=C(C(=O)OC)[C@H]13,inconclusive: -1.79%,–
O=c1[nH]c(C2CCN(S(=O)(=O)Cc3ccccc3)CC2)nc2c1nnn2Cc1cccc(Cl)c1,inactive: -4.27%,–
COc1ccc(C2(CNC(=O)c3cccc([N+](=O)[O-])c3)CCOCC2)cc1,inconclusive: 3.39%,–
CSc1cccc(N2CC(C(=O)N3CCN(S(=O)(=O)c4ccccc4Cl)CC3)CC2=O)c1 (centres undefined),inactive: -4.06%,–
COc1cc2c(C(=O)Nc3ccc4c(c3)OCO4)cn(CC(C)C)c(=O)c2cc1OC,–,"inconclusive: 9.2 µM [falling, partial curve, poor fit]"
Cc1ccc(S(=O)(=O)N2CCCOC2CNC(=O)C(=O)NCc2cccs2)cc1 (centres undefined),inconclusive: -1.38%,–
CCC(OC(=O)c1cccs1)C(=O)NCc1ccco1 (centres undefined),inconclusive: -2.15%,–
COc1ccc(N(C(=O)c2ccco2)S(=O)(=O)c2cccs2)cc1,inactive: -0.347%,–
COC(=O)c1cc(OC)c(OC)cc1NC(=O)Cc1ccccc1[N+](=O)[O-],inconclusive: -8.59%,–
COc1ccc(S(=O)(=O)NC2CC(C)(C)NC(C)(C)C2)cc1C(C)C,inactive: -1.34%,–
CCN(Cc1ccccc1)C(=O)COC(=O)c1n[nH]c2ccccc12,–,"inconclusive: 20.6 µM [falling, partial curve, poor fit]"
COc1ccccc1OCC(=O)NC1CCCc2ccccc21 (centres undefined),–,"inconclusive: 8.91 µM [falling, partial curve, poor fit]"
O=C(CSc1nccn1-c1ccc(Cl)cc1)NCc1ccc2c(c1)OCO2,inconclusive: 2.57%,–
COc1cc(OC)cc(-c2nnc(NC(=O)c3ccc4c(c3)OCCO4)o2)c1,inactive: -1.23%,–
Cc1cc(C)cc(-n2ncc3c2CCCC3NC(=O)c2cc(C)oc2C)c1 (centres undefined),inactive: 9.8%,–
COc1ccc(N(CC(=O)O)S(=O)(=O)c2ccc(C)cc2)cc1Cl,inconclusive: 3.31%,–
NS(=O)(=O)c1ccc(CNC(=O)/C=C/c2c(Cl)cccc2Cl)cc1,–,"inconclusive: 11.2 µM [falling, partial curve, poor fit]"

# Quoted at random: 4 records from the list
Structure (SMILES),"activity change, negative = inhibition",Potency
O=C(NCC(c1ccc(F)cc1)N1CCOCC1)c1cc(F)c(F)c(F)c1F (centres undefined),inconclusive: -6.27%,–
COc1ccc(S(=O)(=O)NC2CC(C)(C)NC(C)(C)C2)cc1C(C)C,inactive: -1.34%,–
CCc1ccc(OC(=O)c2cncc(Br)c2)cc1,inconclusive: -18.6%,–
COc1ccc([C@@H]2[C@@H]3C(=O)N(C(C)(C)C)C(=O)[C@@H]3[C@]3(Cc4ccccc4)C(=O)N(c4cccc(Cl)c4)C(=O)N23)cc1,inconclusive: 11%,–
